# Experimental data taken from PubChem BioAssay AID2685 (National Center for Advancing Translational Sciences (NCATS), 2010).
# The campaign covered roughly 320,000 compounds. About 2,100 (0.66%) were called active. Inconclusive means that the source gave no clear call. Such entries were picked first, then a sample of the others. The call rests on the fitted dose curve; in most records, active means well fitted inhibition curve with a large enough effect in the signal ratio, with a control signal flat (not every such curve was filed as active); inconclusive means small, poorly fitted or top-dose-only effect, or effect the other way, or a change in a side signal; inactive means flat fitted curve, though single readings scatter; the % refers to the signal ratio. Potencies of inconclusive entries are doubtful fits and often do not repeat.
# Experiment: qHTS Assay for Lipid Storage Modulators in Drosophila S3 Cells
# Conditions: BODIPY lipid droplet fluorescence, 18-24 h, cells fed with added oleic acid; lipid storage change, negative = inhibition: at 46.1 µM (top of the series) unless noted
# How it was run: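 Laser-scanning cytometry quantifies lipid droplet accumulation (500–530 nm total intensity; droplet/cell object ratio) in oleic acid-fed (400 uM added) Drosophila S3 cells treated with a concentration series. 20 uM Triacsin C defined 100% inhibition.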
# On the % scale 0 is the no-effect control and ±100 the full control effect; potency means the concentration at half of the fitted maximal effect.
SMILES,"lipid storage change, negative = inhibition",Potency
CC1CCCC/C1=N/Nc1ccc([N+](=O)[O-])cc1[N+](=O)[O-] (stereo not given),inconclusive: 17.8%,–
O=C(c1cc(Br)ccc1Cl)N1CCCC1,inconclusive: 3.86%,–
O=C(O)CCCCCCNS(=O)(=O)c1ccccc1,inconclusive: 20.6%,–
CCCCC1C2C(=O)N(c3ccccc3)C(=O)C2ON1c1ccccc1 (stereo not given),inactive,–
COc1ccc(S(=O)(=O)N2CCN(CC(=O)c3[nH]c(C)c(C(C)=O)c3C)CC2)cc1OC,inactive,–
Nc1ncc(-n2cncn2)c(-c2ccccc2)n1,inconclusive: -23.6%,–
CCOC(=O)c1c(C)[nH]c(C(=O)Cn2nnc(-c3ccc(Cl)cc3)n2)c1C,inconclusive: 23.6%,–
CCC(=O)N[C@@H]1CC(C(C)(C)NC(=O)CC)CC=C1C (stereo not given in full),inconclusive: 4.86%,–
CCCc1cc(C(=O)Nc2ccc(C)cc2)no1,–,"inconclusive: 0.82 µM [falling, partial curve]"
CCOC(=O)c1cc2c(C(F)(F)F)cc(-c3cccnc3)nc2o1,inconclusive: 24.4%,–
c1ccc2c(Nc3ccc(N4CCOCC4)cc3)nc(N3CCOCC3)nc2c1,inconclusive: 117%,–
O=C(c1ccccn1)c1cc2ccccc2n1S(=O)(=O)c1ccccc1,–,"inconclusive: 16.4 µM [activator, single point]"
CCOC(=O)Nc1ccc2c(c1)N(C(=O)N1CCN(C)CC1)c1ccccc1S2,inconclusive: 47%,–
COc1ccc(CN(C)C(=O)COC(=O)c2ccc3c(c2)OCO3)cc1OC,inconclusive: 0.515%,–
Cc1ccc2nc(-c3cccc(Br)c3)cc(C(=O)Nn3cnnc3)c2c1,inconclusive: -25.2%,–
Cc1cccc(C(=O)Oc2ccc(/C=N/NC(=O)Cc3ccc([N+](=O)[O-])cc3)cc2)c1,–,"inconclusive: 0.58 µM [rising, full curve]"
COc1ccc(OC)c(NC(=O)CN2C(=O)NC3(CCOc4ccccc43)C2=O)c1 (stereo not given),inconclusive: 105%,–
COc1cccc(C(=O)CSc2nnc(-c3cc(OC)cc(OC)c3)o2)c1,inconclusive: 18.4%,–
O=S(=O)(Nc1ccc2c(c1)OCCO2)c1cccc(F)c1,–,"inconclusive: 23.1 µM [activator, single point]"
C=C(C)CNC(=S)NNC(=O)CCn1c2ccc(Cl)cc2c2cc(Cl)ccc21,–,"inconclusive: 29.1 µM [cytotoxic, single point]"
Cc1ccc(CNC(=O)CCc2nc(-c3cccs3)no2)cc1,–,"inconclusive: 23.1 µM [activator, single point]"
Cc1ccccc1C(=O)N1CCC(C(=O)N2CCCc3ccccc32)CC1,–,"inconclusive: 0.411 µM [activator, full curve, poor fit]"
COc1ccc(N2CCN(C(=O)c3cc([N+](=O)[O-])ccc3N3CCN(CCO)CC3)CC2)cc1,inconclusive: 25.4%,–
O=C(CN1C(=O)NC2(CCCCCC2)C1=O)c1ccc(Cl)s1,inconclusive,–
O=S(=O)(Nc1n[nH]c(C(F)(F)F)n1)c1ccccc1,–,"inconclusive: 2.59 µM [activator, partial curve, poor fit]"

# As entered above.
# Under lipid storage change, negative = inhibition, CCCCC1C2C(=O)N(c3ccccc3)C(=O)C2ON1c1ccccc1 (stereo not given) reads inactive
# Under lipid storage change, negative = inhibition, COc1ccc(N2CCN(C(=O)c3cc([N+](=O)[O-])ccc3N3CCN(CCO)CC3)CC2)cc1 reads inconclusive: 25.4%
# Under lipid storage change, negative = inhibition, COc1ccc(S(=O)(=O)N2CCN(CC(=O)c3[nH]c(C)c(C(C)=O)c3C)CC2)cc1OC reads inactive
# Under lipid storage change, negative = inhibition, CC1CCCC/C1=N/Nc1ccc([N+](=O)[O-])cc1[N+](=O)[O-] (stereo not given) reads inconclusive: 17.8%

# Next part:

SMILES,"lipid storage change, negative = inhibition",Potency
O=c1c2c3nc4ccccc4nc3n(CC3CCCO3)c2ncn1CCc1ccccc1 (stereo not given),–,"inconclusive: 2.91 µM [activator, partial curve]"
CN(CC(=O)OCC(=O)Nc1ccccc1)S(=O)(=O)c1ccc(Cl)cc1,inconclusive: -15.6%,–
O=C1c2ccccc2NC(c2ccc(-c3cccs3)o2)N1O (stereo not given),–,"inconclusive: 1.16 µM [activator, single point]"
CC(C)OC(=O)CSc1nnc(-c2ccc(O)cc2)n1Cc1ccccc1,inconclusive: 33.2%,–
Cc1cc(C)cc(C(=O)N[C@@H](C)C(=O)N2CCC3(CC2)NCCc2[nH]cnc23)c1,–,"inconclusive: 0.58 µM [activator, single point]"
C/C(=N\NC(=O)c1c(C)nc2ccccn12)c1cccc([N+](=O)[O-])c1,inconclusive: 8%,–
COc1ccc(S(=O)(=O)N(CC(=O)NCCCN(C)C)c2ccc(C)cc2)cc1OC,inconclusive: -13.2%,–
COC(C(=O)Nc1ccnn1C1CCN(Cc2ccc(Cl)s2)CC1)c1ccccc1 (stereo not given),inconclusive: 155%,–
COc1ccc2c(C)nc(Nc3nc(-c4ccccc4)cc(=O)[nH]3)nc2c1,–,"inconclusive: 5.17 µM [cytotoxic, full curve]"
OC(CNCCCCNCC(O)C(F)(F)F)C(F)(F)F (stereo not given),inconclusive: 12.5%,–
COc1ccc(C(=O)NCc2nnc(SCC(=O)NC3CCCC3)o2)cc1,–,"inconclusive: 9.2 µM [activator, partial curve, poor fit]"
CC(=O)Oc1ccccc1C(=O)N1CCN(S(=O)(=O)c2ccc3ccccc3c2)CC1,inconclusive: 17.3%,–
CNS(=O)(=O)c1cc(Nc2ncnc3sccc23)ccc1C,inconclusive: -0.169%,–
CC(=O)N1CCN(C(=O)c2cc(S(=O)(=O)NCc3ccccc3)ccc2C)CC1,inconclusive: 20.4%,–
COC(CNC(=O)c1cccnc1)OC,inconclusive: -16.1%,–
CCOC(=O)c1c(-c2ccc(C)cc2)csc1NC(=O)C1CCCO1 (stereo not given),–,active: 6.51 µM
O=C(Cc1ccc2c(c1)OCCO2)Nc1cccc(S(=O)(=O)N2CCOCC2)c1,inconclusive: 1.05%,–
O=C(CCC(=O)NNC(=O)Nc1cccc(Cl)c1)NCc1ccccc1,inconclusive: 5.49%,–
Cc1nnc(SCc2ccc(F)cc2)s1,–,active: 2.06 µM
Cn1c(CN2CCOCC2)nnc1SCC(=O)Nc1cccc(C(F)(F)F)c1,–,"inconclusive: 29.1 µM [activator, single point]"
COc1ccc(N(CC(=O)Nc2ccccc2F)S(=O)(=O)c2ccc(OC)c(OC)c2)cc1,–,"inconclusive: 29.1 µM [falling, single point]"
O=C(CN1C(=O)c2ccccc2C1=O)N1CCOCC1,–,"inconclusive: 36.6 µM [falling, partial curve, poor fit]"
CC(Sc1nnnn1-c1ccccc1)C(=O)NC1CCCC1 (stereo not given),–,"inconclusive: 32.6 µM [falling, single point]"
CCOC(=O)c1ccc(Oc2c(C)oc3c(CN4CCN(C)CC4)c(O)ccc3c2=O)cc1,inconclusive: 5.98%,–
CC(C)C(Nc1ccc(C(F)(F)F)cc1[N+](=O)[O-])C(=O)O (stereo not given),inconclusive: -21%,–

SMILES,"lipid storage change, negative = inhibition",Potency
Cc1ccc(N2CCN(C(=O)c3cccc([N+](=O)[O-])c3)CC2)cc1Cl,inconclusive: 6.88%,–
Cc1csc(NC(=O)CSc2nnc(NC(=O)NC(C)(C)C)s2)n1,inconclusive: -22.1%,–
Cc1cc(C(c2ccc(O)cc2)c2cc(C)c(O)cc2C)c(C)cc1O,–,"inconclusive: 29.1 µM [activator, single point]"
O=C(CCCCCNC(=O)N1CCn2c1nc1ccccc12)N[C@H](C(=O)O)c1ccccc1,–,"inconclusive: 0.0259 µM [activator, full curve, poor fit]"
C=CCn1c(CNc2ccccc2)nnc1SCC(=O)N/N=C/c1ccccc1O,–,"inconclusive: 25.9 µM [falling, single point]"
COCCN=C1N[C@@H](c2ccc(Br)cc2)C(C(=O)OC)=C(C)N1Cc1ccccc1,inconclusive: 8.85%,–
CCOC(=O)c1cc(-c2ccccc2)sc1NC(=O)C(C)N1C(=O)c2ccccc2C1=O (stereo not given),inconclusive: -38.4%,–
O=C(C[n+]1cc(-c2ccc(F)cc2)n2c1CCC2)N1c2ccccc2Sc2ccccc21,inconclusive: 8.57%,–
Cc1ccc(C(=O)N2CCC3(CC2)Oc2ccc(Cl)cc2C(=O)C32CC(c3ccccc3)=NO2)s1 (stereo not given),inconclusive: 20.7%,–
CN(C[C@H](Cc1ccccc1)N(C[C@H](Cc1ccccc1)N(CC1(c2ccccc2)CC1)N=O)N=O)N=O,inconclusive: -10.7%,–
COc1cc(C(C[N+](=O)[O-])c2c(C)cc3ccccn23)ccc1O (stereo not given),–,active: 0.651 µM
Cc1ccc(N2C(=O)[C@@H]3C(c4ccc(F)cc4)=NO[C@@H]3C2=O)cc1,inconclusive: -68.1%,–
O=C(CSc1ncn[nH]1)Nc1cccc2ccccc12,–,"inconclusive: 0.82 µM [rising, partial curve, poor fit]"
Cc1ccc(NC(=S)N(CCN2CCOCC2)Cc2ccccc2F)cc1,inactive,–
CCOC(=O)c1c(NC(=O)COC(=O)Cn2cnc3ccccc32)sc2c1CCC(C)C2 (stereo not given),–,"inconclusive: 6.51 µM [activator, partial curve]"
CSc1nnc2c(n1)OC(c1cn(C)c3ccccc13)N(C(C)=O)c1ccccc1-2 (stereo not given),–,"inconclusive: 0.291 µM [falling, full curve]"
CCn1cc(C2=NOC(C(=O)Nc3cc(OC)c(Cl)cc3OC)C2)c(C)n1 (stereo not given),inconclusive: -21.5%,–
CC(C)(C)CC(=O)Nc1cc2c3c(c1)CCC(=O)N3CCC2,inconclusive: -35%,–
CCn1cc([N+](=O)[O-])c(C(=O)NCc2ccc(Cl)cc2)n1,inconclusive: 30.3%,–
O=C(CC1C(=O)NCCN1Cc1cccc(Oc2ccccc2)c1)NCCCn1cccn1 (stereo not given),inconclusive: 13.2%,–
O=C(c1ccco1)N1CCN(S(=O)(=O)c2cccc(C(F)(F)F)c2)CC1,inconclusive: -0.89% [at 9.22 µM],–
CCN1CCN(C(=O)CS(=O)Cc2nc(-c3ccc(OC)cc3)oc2C)CC1 (stereo not given),inconclusive: 35.4%,–
Cn1c(=O)n(/N=C/c2ccccc2)c2ccccc21,–,"inconclusive: 0.116 µM [falling, full curve, poor fit]"
CCOC(=O)c1sc(S(C)(=O)=O)c2c1CCc1conc1-2,inconclusive: -58.6%,–
CCCCN(C(=O)c1cc(Cl)nc2ccccc12)c1c(N)n(Cc2ccccc2)c(=O)[nH]c1=O,inconclusive: -40.2% [at 0.0737 µM],–
